{"sequences": {"note": "By UniProt entry, the sequences of proteins in these tests, tags left out. Residues count along the entry.", "UniProt A4H2J0, 1-365": "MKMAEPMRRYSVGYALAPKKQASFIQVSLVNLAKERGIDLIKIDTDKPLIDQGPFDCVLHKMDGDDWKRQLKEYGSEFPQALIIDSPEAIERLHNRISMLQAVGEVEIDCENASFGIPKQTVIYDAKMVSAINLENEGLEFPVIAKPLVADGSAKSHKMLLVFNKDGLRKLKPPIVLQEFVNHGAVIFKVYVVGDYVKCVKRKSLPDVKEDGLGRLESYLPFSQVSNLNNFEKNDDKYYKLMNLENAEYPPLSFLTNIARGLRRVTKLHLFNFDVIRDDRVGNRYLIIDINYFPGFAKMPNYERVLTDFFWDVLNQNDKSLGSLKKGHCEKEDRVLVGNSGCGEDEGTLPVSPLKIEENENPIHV"}, "source": "paper PMC10765375", "about": "“Crystal structure and enzymology of Solanum tuberosum inositol tris/tetrakisphosphate kinase 1 (StITPK1)” (Biochemistry, 2023)", "key": {"StITPK1 [1]": {"target": "T1, StITPK1 (Solanum tuberosum, UniProt A4H2J0)", "assay": "Fluorescence polarization displacement of 2-FAM-InsP5", "assay_type": "binding", "conditions": "read-out: Ki for displacement of 2-FAM-InsP5; 2 nM 2-FAM-InsP5, 50 nM StITPK1, pH 6.5; Cheng-Prusoff with Kd 48 nM", "description": "To determine the relative strengths of binding of different inositol phosphate and inositol pyrophosphate substrates of StITPK1 we undertook fluorescence polarization experiments with 2-FAM-InsP5 [35]. […] A saturation curve for binding of 2-FAM-InsP5 to StITPK1 is shown (Figure S5) and displacement curves are shown for diverse inositol phosphates (Figure 2). The structures of these compounds are shown (Figure S1). […]\nFluorescence polarization (anisotropy)\nA curve for binding of 2-FAM-InsP5 to StITPK1 was obtained by incubation of 2 nM 2-FAM-InsP5 [1] with increasing concentration (1-500 nM) of StITPK1 in 20 mM HEPES pH 6.5, 1 mM EDTA, 100 mM NaCl, after. Thereafter, displacement assays were performed by titration of inositol phosphate, inositol pyrophosphate […]\nor analog thereof with 2 nM 2-FAM-InsP5 and 50 nM StITPK1. Compounds were tested for displacement in a range of 1 nM - 50 µM. Fluorescence polarization was measured in 384-well, black, low-binding plates, Corning product 3573. Binding and displacement curves (anisotropy) were log transformed and fitted to a 4-parameter logistic (in GraphPad Prism v.6 software (GraphPad Software Inc., San Diego, USA). Fitting of the […]\nbinding of 2-FAM-InsP5 to a specific one-site binding model in GraphPad Prism yielded a Kd of 48 nM.\nSubstituting the value of Kd for KM in the Cheng-Prusoff equation for competitive inhibition: […]"}, "StITPK1 [2]": {"target": "T1, StITPK1", "assay": "Kinase assay with ATP, HPLC of products", "assay_type": "biochemical", "method": "Kinase assays were performed with ATP-regeneration as described for ATP-grasp kinases ITPK1/2 and VIH1/2 [2-3, 27-29], here in 20 mM HEPES pH 6.5, 1 mM MgCl2, 0.5 mM ATP and 1 mM inositol phosphate substrate. The low rate constants for phospho-kinase activity and the low sensitivity of NMR, PAGE and HPLC […]\nassays demand long incubation times with high, but non-inhibitory concentrations of phospho-kinase substrates […]\n[2-3, 27-29], here with or without 4 µM protein for 3h or 12h at 25 °C. Competition/inhibition assays were […]\nperformed under ATP-regenerating conditions with 0.5 mM ATP, 1 mM substrate, either Ins(1,2,3,4,5)P5 or […]\nInsP6, and competitor, typically 0.5 mM, incubated with or without 3 µM protein for 2 h at 25 °C . […]\n0.5 mM inositol pyrophosphate substrate incubated with 4 µM protein at 25 °C . HPLC analysis and detection of inositol phosphates by complexation with ferric ion was performed as described. Peak area data were analysed with the chromatography Jasco ChromNav v.2 software and x,y data were imported into GraphPad Prism v.6 software (GraphPad Software Inc., San Diego, USA) for plotting of chromatograms without additional processing of the data. […]"}, "StITPK1 [3]": {"target": "T1, StITPK1", "assay": "Competition/inhibition of Ins(1,2,3,4,5)P5 5-phospho-kinase activity, HPLC", "assay_type": "biochemical", "conditions": "0.5 mM competing substrate/inhibitor, 1 mM Ins(1,2,3,4,5)P5, 3h experiment"}}, "note": "The match of structure and compound is tentative.", "data": [{"molecule": "O=C(CP(=O)(O)O)OC1C(OP(=O)(O)O)C(OP(=O)(O)O)C(OP(=O)(O)O)C(OP(=O)(O)O)C1OP(=O)(O)O", "note": "(centres unmarked)", "values": [{"measurement": "Ki", "setting": "StITPK1 [1]", "result": 300, "unit": "nM"}, {"measurement": "Product formation (3h)", "setting": "StITPK1 [2]; 1 mM substrate, 3h, 25°C", "result": 0, "unit": "μM/μM protein"}, {"measurement": "Product formation (12h)", "setting": "StITPK1 [2]; 1 mM substrate, 12h, 25°C", "result": 9, "unit": "μM/μM protein"}, {"measurement": "kinase substrate status", "setting": "StITPK1 [2]; with ATP, HPLC", "result": "very weak substrates"}, {"measurement": "% inhibition at 3h, Ins(1,2,3,4,5)P5 substrate", "setting": "StITPK1 [3]", "result": 42, "unit": "%"}]}]}
